PubChem BioAssay AID686943, Drosophila RNAi Screening Center – 2013

Aim: 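Fly genes whose loss alters ERK activation after insulin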 (primary screen)
Cells: Drosophila S2R+ haemocyte-like cells expressing YFP-tagged ERK (Rolled)
Knock-down reagent: long dsRNA against Drosophila genes
Conditions: insulin stimulation versus unstimulated cells; dose and duration not given
Measured: 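Antibody staining for doubly phosphorylated ERK divided by ERK-YFP signal, as plate z-scores, in insulin-treated and untreated cells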
Reading the numbers: replicate 1, z-score of dpERK with insulin and replicate 2, z-score of dpERK with insulin: higher = more active ERK per ERK-YFP after insulin; replicate 1, z-score of dpERK under basal conditions: higher = more basal active ERK per ERK-YFP; replicate 1, z-score of ERK-YFP with insulin: higher = more YFP-tagged ERK signal
In all, the deposit lists about 23,000 reagents; below is a random part of those that have a named target and a result. 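Extra replicates exist only for a retested subset of genes; insulin dose and duration not given; both raised and lowered dpERK matter.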 A plus sign joins genes that one reagent is predicted to hit. Not stated in the record: the amount of reagent, the time to read-out.

no.	Gene	amplicon	replicate 1, z-score of dpERK with insulin	replicate 2, z-score of dpERK with insulin	replicate 1, z-score of dpERK under basal conditions	replicate 1, z-score of ERK-YFP with insulin
1	2mit	DRSC14194	0.33	0.53	0.75	0.01
2	2mit	DRSC15224	0.37	0	-0.53	-0.63
3	ru	DRSC08258	0.15	0.29	-1.17	0.41
4	CG5509	DRSC15822	0.49	0.49	1.19	0.24
5	pre-mod(mdg4)-W + pre-mod(mdg4)-Y + mod(mdg4) + 3 more	DRSC16328	-0.85	0.16	-0.11	0.17
6	dmGlut	DRSC02835	0.17	0.33	-1.03	-0.15
7	Cpr78Ca	DRSC11651	-0.48	0.16	-0.22	0.69
8	CG14410	DRSC19596	0.95	0.69	-0.27	0.8
9	Lon	DRSC11049	0.06	-0.1	-2.67	-0.55
10	Corin	DRSC06818	0.49	0.52	-0.93	0.36
11	CG15196	DRSC19643	-0.08	-0.02	-0.39	0.26
12	Rap2l	DRSC04646	0.53	-0.01	0.03	-0.02
13	Rac1	DRSC08688	-5.06	-3.74	-0.77	0.01
14	M7BP	DRSC05053	-0.23	-0.47	-0.39	0.55
15	M7BP	DRSC05054	1.81	1.11	-0.03	-0.82
16	M7BP	DRSC05932	0.61	-0.53	0.54	-0.17
17	M7BP	DRSC06701	0.03	0.48	-0.39	-0.16
18	M7BP	DRSC06816	0.89	0.14	0.47	-0.43
19	Gr23a	DRSC00410	-0.22	-0.2	-0.88	0.98
20	pelo	DRSC03588	-0.11	-0.13	-0.46	0.39
21	CG5446	DRSC02862	-0.1	-0.69	-0.62	-1.39
22	BoYb	DRSC11637	0.61	0.37	0.34	0.4
23	Mad1	DRSC07561	0.52	0.25	1.02	-0.44
24	CG7215 + Prx5	DRSC16214	0.04	0	1.13	0.34
25	CG7215 + Prx5	DRSC16215	-0.22	-0.35	-0.33	2.05
26	tx	DRSC16931	-0.28	0.57	0.9	2.3
27	CG14253	DRSC14748	-0.61	-0.32	1.48	0.61
28	Nepl21	DRSC14133	-1.58	-0.42	-0.01	0.27
29	Sema5c	DRSC11279	1.06	1.11	0.41	-0.46
30	CG7236	DRSC03037	0.89	1.29	0.37	0.22
31	Phk-3	DRSC04547	0.48	0.09	1.02	-0.56
32	Gr66a	DRSC10783	0.16	-0.34	0.14	0.17

Sorted by “replicate 2, z-score of dpERK with insulin” (high to low): some entries from above.
Gene	amplicon	replicate 1, z-score of dpERK with insulin	replicate 2, z-score of dpERK with insulin	replicate 1, z-score of dpERK under basal conditions	replicate 1, z-score of ERK-YFP with insulin
BoYb	DRSC11637	0.61	0.37	0.34	0.4
Mad1	DRSC07561	0.52	0.25	1.02	-0.44
CG7215 + Prx5	DRSC16214	0.04	0	1.13	0.34
pelo	DRSC03588	-0.11	-0.13	-0.46	0.39
CG7215 + Prx5	DRSC16215	-0.22	-0.35	-0.33	2.05
CG5446	DRSC02862	-0.1	-0.69	-0.62	-1.39

The listing continues:
no.	Gene	amplicon	replicate 1, z-score of dpERK with insulin	replicate 2, z-score of dpERK with insulin	replicate 1, z-score of dpERK under basal conditions	replicate 1, z-score of ERK-YFP with insulin
33	nkd	DRSC11376	0.41	-0.51	0.7	-0.24
34	CG14160	DRSC10161	0.21	0.1	-1.54	0.19
35	opa	DRSC12384	0.56	0.28	0.33	0.61
36	opa	DRSC22563	-0.86	0.02	-1.72	0.04
37	pnt	DRSC17028	-1.56	-5.57	-3.73	-0.2
38	CG31528	DRSC12003	-0.51	0.04	0.51	0.18
39	raskol	DRSC19202	-0.28	0.68	-0.21	0.4
40	raskol	DRSC19731	0.9	0.18	0.91	-0.49
41	raskol	DRSC19964	0.39	-0.08	0.95	0.41
42	raskol	DRSC19967	-5.51	-3.27	-3.53	-1.53
43	raskol	DRSC21788	0.99	0.81	0.26	-0.52
44	mei-217 + mei-218	DRSC20349	0.15	1.18	0	-0.34
45	Bgb	DRSC08148	-0.67	-0.43	-0.4	0.37
46	Lcp65Ab2 + Lcp65Ab1	DRSC10340	0.02	0.51		-0.53
47	Lcp65Ab2 + Lcp65Ab1	DRSC10343	0.99	0.97	0.26	-1.24
48	Trhn	DRSC08621	0.41	-0.26	1.17	-0.45
49	CG11841	DRSC14399	-0.68	0.87	-0.26	0.17
50	CG5376	DRSC15782	0.27	0.28	0.91	-1.12
51	CG17707	DRSC20650	-0.66	-0.3	0.02	-0.09
52	CG14644	DRSC12230	0.35	1.16	0.51	-1.09
53	CG2004	DRSC18200	0.93	0.75	0.25	0.17
54	Prp18	DRSC16802	2.54	1.16	1.99	-1.29
55	Fim	DRSC20243	-0.88	-2.5	-0.79	0.63
56	CG12237	DRSC19449	-0.02	0.04	0.83	-0.29
57	CG12237	DRSC22256	0.2	0.21	-0.46	0.84
